Drawing on paper PMC4444300, this text covers binding for two molecules.

Sequences of proteins named here, by UniProt entry; tags and fusion partners are left off. A change or cut given only in a name is not applied to a line headed by its entry. A line that says so, or that is headed by a name, gives the form on record, which may keep a tag or linker.
myeloid zinc finger-1 (MZF-1), endogenous (human (endogenous in SK-Hep-1)) (P28698-2, form named): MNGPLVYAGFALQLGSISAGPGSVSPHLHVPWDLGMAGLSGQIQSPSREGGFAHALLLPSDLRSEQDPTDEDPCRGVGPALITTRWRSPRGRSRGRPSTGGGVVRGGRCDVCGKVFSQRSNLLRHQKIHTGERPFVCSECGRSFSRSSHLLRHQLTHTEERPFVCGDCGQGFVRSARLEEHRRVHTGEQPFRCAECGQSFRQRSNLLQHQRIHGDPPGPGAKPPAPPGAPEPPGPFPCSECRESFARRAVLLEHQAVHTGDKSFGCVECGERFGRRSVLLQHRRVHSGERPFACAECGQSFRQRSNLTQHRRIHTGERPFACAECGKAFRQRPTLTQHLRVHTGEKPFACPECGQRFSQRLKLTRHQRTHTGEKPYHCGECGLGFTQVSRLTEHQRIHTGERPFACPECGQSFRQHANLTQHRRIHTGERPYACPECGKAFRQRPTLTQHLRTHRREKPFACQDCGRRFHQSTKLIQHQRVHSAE
FLAG-MZF-1ΔDBD (MZF-1 1–72 aa, DNA-binding deficient) (P28698-2, form named): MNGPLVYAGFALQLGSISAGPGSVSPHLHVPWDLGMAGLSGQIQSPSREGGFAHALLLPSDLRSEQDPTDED

Test [1] addresses T1, c-Myc-Elk-1ΔDBD (Elk-1 87–428 aa, DNA-binding deficient) (human) (UniProt P19419).
T1 sequence: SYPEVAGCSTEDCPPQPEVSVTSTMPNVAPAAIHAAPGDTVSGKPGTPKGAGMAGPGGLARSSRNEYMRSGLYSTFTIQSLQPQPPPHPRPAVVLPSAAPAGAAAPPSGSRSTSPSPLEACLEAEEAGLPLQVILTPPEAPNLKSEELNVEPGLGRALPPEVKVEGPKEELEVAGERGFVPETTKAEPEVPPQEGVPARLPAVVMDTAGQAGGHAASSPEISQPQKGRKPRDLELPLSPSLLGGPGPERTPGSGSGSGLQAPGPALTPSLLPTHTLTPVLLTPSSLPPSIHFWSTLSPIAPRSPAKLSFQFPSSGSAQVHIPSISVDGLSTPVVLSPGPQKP
Kind of test: co-IP; SK-Hep-1 cells transfected with FLAG-MZF-1ΔDBD (5 μg) or c-Myc-Elk-1ΔDBD (5 μg); IP with anti-FLAG or anti-Myc, immunoblot with anti-Elk-1 or anti-MZF-1. In general terms: Immunoblotting shows a protein as a band on a membrane.

In test [2] the target is T2, Ets-like protein-1 (Elk-1), endogenous (human (endogenous in SK-Hep-1)) (UniProt P19419).
T2 sequence: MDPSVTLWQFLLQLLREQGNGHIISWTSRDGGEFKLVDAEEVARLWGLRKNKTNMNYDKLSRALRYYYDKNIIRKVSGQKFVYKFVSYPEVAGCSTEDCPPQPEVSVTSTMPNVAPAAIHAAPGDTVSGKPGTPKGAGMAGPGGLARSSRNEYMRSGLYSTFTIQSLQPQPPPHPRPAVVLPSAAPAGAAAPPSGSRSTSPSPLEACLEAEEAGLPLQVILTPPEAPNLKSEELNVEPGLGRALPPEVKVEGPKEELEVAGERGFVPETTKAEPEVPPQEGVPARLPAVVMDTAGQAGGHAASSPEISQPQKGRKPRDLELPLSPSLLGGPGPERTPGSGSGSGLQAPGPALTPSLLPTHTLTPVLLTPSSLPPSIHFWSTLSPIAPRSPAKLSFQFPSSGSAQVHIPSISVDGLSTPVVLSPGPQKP
Put plainly: co-IP; endogenous proteins of SK-Hep-1 cells; RIPA lysate, IP with anti-MZF-1, anti-Elk-1 or control rabbit IgG, immunoblot with the antibody of the counterpart.

Test [3] deals with FLAG-MZF-1ΔDBD (MZF-1 1–72 aa, DNA-binding deficient) (human) (UniProt P28698). Kind of test: co-IP; SK-Hep-1 cells transfected with FLAG-MZF-1ΔDBD (5 μg) or c-Myc-Elk-1ΔDBD (5 μg); IP with anti-FLAG or anti-Myc, immunoblot with anti-Elk-1 or anti-MZF-1.
Test [4] addresses myeloid zinc finger-1 (MZF-1), endogenous (human (endogenous in SK-Hep-1)) (UniProt P28698). Put plainly: co-IP; unpublished ('preparing for publication'); constructs and conditions not told.
For test [5] the target is unchanged. Kind of test: co-IP; endogenous proteins of SK-Hep-1 cells; RIPA lysate, IP with anti-MZF-1, anti-Elk-1 or control rabbit IgG, immunoblot with the antibody of the counterpart.

These are yes or no findings as the source states them, for the method shown. In cells and extracts the contact can be indirect. Some binding calls cover weakened binding; strength is not graded here. For some assays here: Sequences can lack the tags named with a protein.

Regarding “myeloid zinc finger-1 (MZF-1), endogenous (from UniProt P28698-2 1-485)”, the binding result in test [1] and in test [2] was “binds” each time.

B1: Ets-like protein-1 (Elk-1), endogenous (protein, UniProt P19419 1-428)
chain: MDPSVTLWQFLLQLLREQGNGHIISWTSRDGGEFKLVDAEEVARLWGLRKNKTNMNYDKLSRALRYYYDKNIIRKVSGQKFVYKFVSYPEVAGCSTEDCPPQPEVSVTSTMPNVAPAAIHAAPGDTVSGKPGTPKGAGMAGPGGLARSSRNEYMRSGLYSTFTIQSLQPQPPPHPRPAVVLPSAAPAGAAAPPSGSRSTSPSPLEACLEAEEAGLPLQVILTPPEAPNLKSEELNVEPGLGRALPPEVKVEGPKEELEVAGERGFVPETTKAEPEVPPQEGVPARLPAVVMDTAGQAGGHAASSPEISQPQKGRKPRDLELPLSPSLLGGPGPERTPGSGSGSGLQAPGPALTPSLLPTHTLTPVLLTPSSLPPSIHFWSTLSPIAPRSPAKLSFQFPSSGSAQVHIPSISVDGLSTPVVLSPGPQKP
With B1, the binding result in test [3], in test [4] and in test [5] was “binds” throughout.
